Test results taken from patent US20060229302A1, “Tricyclic indole derivatives and their use in the treatment of alzheimer's disease” (priority 2003, published 2006).
Where a name gives a salt, the structure may show the parent alone. Some of these results come from one statement about several compounds together.

Chains of the proteins cited; added tags and fusions are not shown. Residues count along the entry.
UniProt P56817, 46-501: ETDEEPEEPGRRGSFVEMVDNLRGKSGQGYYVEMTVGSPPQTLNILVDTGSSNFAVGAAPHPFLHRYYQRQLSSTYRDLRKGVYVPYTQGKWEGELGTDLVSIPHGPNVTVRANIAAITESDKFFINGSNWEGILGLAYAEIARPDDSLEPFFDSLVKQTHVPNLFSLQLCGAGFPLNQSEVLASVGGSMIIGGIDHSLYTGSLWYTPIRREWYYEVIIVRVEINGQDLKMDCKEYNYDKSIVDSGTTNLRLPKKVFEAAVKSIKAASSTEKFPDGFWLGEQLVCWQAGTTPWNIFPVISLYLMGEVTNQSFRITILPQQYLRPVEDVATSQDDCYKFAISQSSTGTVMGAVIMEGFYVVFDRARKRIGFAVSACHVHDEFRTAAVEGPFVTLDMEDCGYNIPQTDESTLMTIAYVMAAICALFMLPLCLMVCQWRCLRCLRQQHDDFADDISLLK

Each molecule was assayed against Asp-2 (Homo sapiens, UniProt P56817) (assay: Asp-2 inhibitory assay). Conditions: FAM-[SEVNLDAEFK]-TAMRA substrate, pH 4.5, 1 h room temperature; read-out: inhibition in the Asp-2 inhibitory assay.
Assay type: biochemical
Procedure: (I) Asp-2 Inhibitory Assay
For each compound being assayed, in a 384 well plate, is added:
This is prepared by diluting 2 ml of a 2 mM DMSO solution of the substrate into 400 ml of buffer (100 mM Sodium acetate pH=4.5, 1 l Milli-Q water, 0.06% Triton X-100 (0.5 ml/l), pH adjusted to 4.5 using glacial acetic acid).
c) 10 μl enzyme solution. This is prepared by diluting 16 ml of a 500 nM enzyme solution into 384 ml of buffer (prepared as above).
Blank wells (enzyme solution replaced by buffer) are included as controls on each plate.

| Compound | IC50 |
| --- | --- |
| CCc1cn2c3c(cc(C(=O)N[C@@H](Cc4ccccc4)[C@H](O)CNCc4ccccn4)cc13)N(C)S(=O)(=O)CC2 [Example E64, 7-Ethyl-N-{(1S,2R)-2-hydroxy-1-(phenylmethyl)-3-[(2-pyridinylmethyl)amino]propyl}-1-methyl-3,4-dihydro-1H-[1,2,5]thiadiazepino[3,4,5-hi]indole-9-carboxamide 2,2-dioxide formate salt] | < 10 µM |
| CCc1cn2c3c(cc(C(=O)N[C@@H](Cc4ccccc4)[C@H](O)CNCC4CC4)cc13)N(C)S(=O)(=O)CC2 [Example E30, N-[(1S,2R)-3-[(Cyclopropylmethyl)amino]-2-hydroxy-1-(phenylmethyl)propyl]-7-ethyl-1-methyl-3,4-dihydro-1H-[1,2,5]thiadiazepino[3,4,5-hi]indole-9-carboxamide 2,2-dioxide formate salt] | < 10 µM |
| CCc1cn2c3c(cc(C(=O)N[C@@H](Cc4ccccc4)[C@H](O)CNC(C)(C)c4cccc(OC)c4)cc13)N(C)S(=O)(=O)C(C)C2 (stereo partly drawn) [Example E13, 7-Ethyl-N-[(1S,2R)-2-hydroxy-3-({1-methyl-1-[3-(methyloxy)phenyl]ethyl}amino)-1-(phenylmethyl)propyl]-1,3-dimethyl-3,4-dihydro-1H-[1,2,5]thiadiazepino[3,4,5-hi]indole-9-carboxamide 2,2-dioxide formate salt] | < 10 µM |
| COc1cccc(CNC[C@@H](O)[C@H](Cc2ccccc2)NC(=O)c2cc3c4c(c2)c(C(C)C)cn4CCS(=O)(=O)N3C)c1 [Example E26, N-[(1S,2R)-2-Hydroxy-3-({[3-(methyloxy)phenyl]methyl}amino)-1-(phenylmethyl)propyl]-1-methyl-7-(1-methylethyl)-3,4-dihydro-1H-[1,2,5]thiadiazepino[3,4,5-hi]indole-9-carboxamide 2,2-dioxide formate salt] | < 10 µM |
| CNC[C@@H](O)[C@H](Cc1ccccc1)NC(=O)c1cc2c3c(c1)c(C(C)C)cn3CCS(=O)(=O)N2C [Example E91, N-[(1S,2R)-2-Hydroxy-3-(methylamino)-1-(phenylmethyl)propyl]-1-methyl-7-(1-methylethyl)-3,4-dihydro-1H-[1,2,5]thiadiazepino[3,4,5-hi]indole-9-carboxamide 2,2-dioxide formate salt] | < 10 µM |
| CCc1cn2c3c(cc(C(=O)N[C@@H](Cc4ccccc4)[C@H](O)CNCc4cccc(OC)c4)cc13)NS(=O)(=O)CC2 [Example E2, 7-Ethyl-N-[(1S,2R)-2-hydroxy-3-({[3-(methyloxy)phenyl]methyl}amino)-1-(phenylmethyl)propyl]-3,4-dihydro-1H-[1,2,5]thiadiazepino[3,4,5-hi]indole-9-carboxamide 2,2-dioxide] | < 10 µM |
| CCc1cn2c3c(cc(C(=O)N[C@@H](Cc4ccccc4)[C@H](O)CNCc4cccc(OC(F)(F)F)c4)cc13)N(C)S(=O)(=O)CC2.O=CO [Example E67, 7-Ethyl-N-{(1S,2R)-2-hydroxy-1-(phenylmethyl)-3-[({3-[(trifluoromethyl)oxy]phenyl}methyl)amino]propyl}-1-methyl 3,4-dihydro-1H-[1,2,5]thiadiazepino[3,4,5-hi]indole-9-carboxamide 2,2-dioxide formate salt] | < 10 µM |
| CCc1cn2c3c(cc(C(=O)N[C@@H](Cc4cc(F)cc(F)c4)[C@H](O)CNC4CCCCC4)cc13)N(C)S(=O)(=O)CC2 [Example E38, N-{(1S,2R)-3-(Cyclohexylamino)-1-[(3,5-difluorophenyl)methyl]-2-hydroxypropyl}-7-ethyl-1-methyl-3,4-dihydro-1H-[1,2,5]thiadiazepino[3,4,5-hi]indole-9-carboxamide 2,2-dioxide formate salt] | < 10 µM |
| CCCNC[C@@H](O)[C@H](Cc1ccccc1)NC(=O)c1cc2c3c(c1)c(CC)cn3CCS(=O)(=O)N2C [Example E60, 7-Ethyl-N-[(1S,2R)-2-hydroxy-1-(phenylmethyl)-3-(propylamino)propyl]-1-methyl-3,4-dihydro-1H-[1,2,5]thiadiazepino[3,4,5-hi]indole-9-carboxamide 2,2-dioxide] | < 10 µM |
| CCc1cn2c3c(cc(C(=O)N[C@@H](Cc4ccccc4)[C@H](O)CNC(C)(C)c4cccc(C(F)(F)F)c4)cc13)N(C)S(=O)(=O)CC2 [Example E11, 7-Ethyl-N-[(1S,2R)-2-hydroxy-3-({1-methyl-1-[3-(trifluoromethyl)phenyl]ethyl}amino)-1-(phenylmethyl)propyl]-1-methyl-3,4-dihydro-1H-[1,2,5]thiadiazepino[3,4,5-hi]indole-9-carboxamide 2,2-dioxide formate salt] | < 10 µM |
| CCc1cn2c3c(cc(C(=O)N[C@@H](Cc4ccccc4)[C@H](O)CNCc4cccc(C(F)(F)F)c4)cc13)N(C)S(=O)(=O)C2C (stereo partly drawn) [Example E78, 6-Ethyl-N-[(1S,2R)-2-hydroxy-1-(phenylmethyl)-3-({[3-(trifluoromethyl)phenyl]methyl}amino)propyl]-1,3dimethyl-1H-[1,2,5]thiadiazino[3,4,5-hi]indole-8-carboxamide 2,2-dioxide formate salt] | < 10 µM |
| CCc1cn2c3c(cc(C(=O)N[C@@H](Cc4ccccc4)[C@H](O)CNC4CCCC4)cc13)N(C)S(=O)(=O)CC2 [Example E58, N-[(1S,2R)-3-(Cyclopentylamino)-2-hydroxy-1-(phenylmethyl)propyl]-7-ethyl-1-methyl-3,4-dihydro-1H-[1,2,5]thiadiazepino[3,4,5-hi]indole-9-carboxamide 2,2-dioxide] | < 10 µM |
| CCc1cn2c3c(cc(C(=O)N[C@@H](Cc4ccccc4)[C@H](O)CNCCc4ccccc4)cc13)N(C)S(=O)(=O)CC2 [Example E66, 7-Ethyl-N-[(1S,2R)-2-hydroxy-3-[(2-phenylethyl)amino]-1-(phenylmethyl)propyl]-1-methyl-3,4-dihydro-1H-[1,2,5]thiadiazepino[3,4,5-hi]indole-9-carboxamide 2,2-dioxide formate salt] | < 10 µM |
| CCc1cn2c3c(cc(C(=O)N[C@@H](Cc4cccc(Cl)c4)[C@H](O)CNC4CC4)cc13)N(C)S(=O)(=O)CC2 [Example E31, N-[(1S,2R)-1-[(3-Chlorophenyl)methyl]-3-(cyclopropylamino)-2-hydroxypropyl]-7-ethyl-1-methyl-3,4-dihydro-1H-[1,2,5]thiadiazepino[3,4,5-hi]indole-9-carboxamide 2,2-dioxide formate salt] | < 10 µM |
| CCc1cn2c3c(cc(C(=O)N[C@@H](Cc4ccccc4)[C@H](O)CNCc4cccc(OC)c4)cc13)NC(=O)CC2 [Example E1, 7-Ethyl-2-oxo-1,2,3,4-tetrahydro-[1,4]diazepino[3,2,1-hi]indole-9-carboxylic acid [(1S,2R)-1-benzyl-2-hydroxy-3-(3-methoxy-benzylamino)-propyl]-amide] | < 10 µM |
| CCc1cn2c3c(cc(C(=O)N[C@@H](Cc4ccccc4)[C@H](O)CNCC(F)F)cc13)N(C)S(=O)(=O)CC2 [Example E62, N-[(1S,2R)-3-[(2,2-Difluoroethyl)amino]-2-hydroxy-1-(phenylmethyl)propyl]-7-ethyl-1-methyl-3,4-dihydro-1H-[1,2,5]thiadiazepino[3,4,5-hi]indole-9-carboxamide 2,2-dioxide] | < 10 µM |
| CCc1cn2c3c(cc(C(=O)N[C@@H](Cc4ccccc4)[C@H](O)CNCCOC)cc13)N(C)S(=O)(=O)CC2 [Example E53, 7-Ethyl-N-[(1S,2R)-2-hydroxy-3-{[2-(methyloxy)ethyl]amino}-1-(phenylmethyl)propyl]-1-methyl-3,4-dihydro-1H-[1,2,5]thiadiazepino[3,4,5-hi]indole-9-carboxamide 2,2-dioxide formate salt] | < 10 µM |
| CCc1cn2c3c(cc(C(=O)N[C@@H](Cc4ccccc4)[C@H](O)CNCc4ccc(C)cc4)cc13)N(C)S(=O)(=O)CC2 [Example E71, 7-Ethyl-N-[(1S,2R)-2-hydroxy-3-{[(4-methylphenyl)methyl]amino}-1-(phenylmethyl)propyl]-1-methyl-3,4-dihydro-1H-[1,2,5]thiadiazepino[3,4,5-hi]indole-9-carboxamide 2,2-dioxide formate salt] | < 10 µM |
| CCc1cn2c3c(cc(C(=O)N[C@@H](Cc4ccccc4)[C@H](O)CNCc4cnn(CC)c4)cc13)N(C)S(=O)(=O)C2 [Example E87, 6-Ethyl-N-[(1S,2R)-3-{[(1-ethyl-1H-pyrazol-4-yl)methyl]amino}-2-hydroxy-1-(phenylmethyl)propyl]-1-methyl-1H-[1,2,5]thiadiazino[3,4,5-hi]indole-8-carboxamide 2,2-dioxide formate salt] | < 10 µM |
| CCc1cn2c3c(cc(C(=O)N[C@@H](Cc4ccccc4)[C@H](O)CNCc4cccnc4)cc13)N(C)S(=O)(=O)CC2 [Example E68, 7-Ethyl-N-{(1S,2R)-2-hydroxy-1-(phenylmethyl)-3-[(3-pyridinylmethyl)amino]propyl}-1-methyl-3,4-dihydro-1H-[1,2,5]thiadiazepino[3,4,5-hi]indole-9-carboxamide 2,2-dioxide formate salt] | < 10 µM |
| CCc1cn2c3c(cc(C(=O)N[C@@H](Cc4ccccc4)[C@H](O)CN[C@H]4CCc5ccccc54)cc13)N(C)S(=O)(=O)CC2 [Example E72, N-[(1S,2R)-3-[(1S)-2,3-Dihydro-1H-inden-1-ylamino]-2-hydroxy-1-(phenylmethyl)propyl]-7-ethyl-1-methyl-3,4-dihydro-1H-[1,2,5]thiadiazepino[3,4,5-hi]indole-9-carboxamide 2,2-dioxide formate salt] | < 10 µM |
| CCc1cn2c3c(cc(C(=O)N[C@@H](Cc4ccccc4)[C@H](O)CNCC(F)(F)F)cc13)N(C)S(=O)(=O)CC2 [Example E28, 7-Ethyl-N-{(1S,2R)-2-hydroxy-1-(phenylmethyl)-3-[(2,2,2-trifluoroethyl)amino]propyl}-1-methyl-3,4-dihydro-1H-[1,2,5]thiadiazepino[3,4,5-hi]indole-9-carboxamide 2,2-dioxide formate salt] | < 10 µM |
